Test results from patent US7205387B2, “Recombinant polypeptide useful for neurotrophin receptor mediated gene delivery and as neurotrophin agonist” (Agency for Science, Technology and Research, priority 2003, dated 2007).
Some of these results come from one statement about several compounds together. Some ranges recur; such a range may be that of the whole group of compounds.

Tested on: PC12 (TrkA and p75^NTR positive) cells
Assay: Gene delivery in vitro (pCAGluc luciferase reporter), PC12 cells
Assay type: cell-based, rat
Conditions: competitor present during transfection, complexes at N/P ratio of 5, 100 μM chloroquine
Protocol: A PC12 (rat pheochromocytoma) cell line was obtained from ATCC (American Type Culture Collection, Manassas, Va., USA) and cultured in RPMI-1640 medium supplemented with 10% fetal bovine serum (FBS) and 5% horse serum. PC12 cells are known to express TrkA and p75^NTR receptors. A COS7 (African green monkey kidney fibroblast) cell line was obtained from ATCC and cultured in Dulbecco's modified Eagle's medium (DMEM) supplemented with 10% fetal bovine serum, 50 U/ml penicillin, and 50 μg/ml streptomycin. The cells were maintained in a 37° C., 5% CO2, humidified incubator.
To determine the transfection efficiencies of our nucleic acid delivery systems, we employ a reporter plasmid, pCAGluc (a gift from Yoshiharu Matsuura, National Institute of Infectious Diseases, Tokyo, Japan), encoding firefly luciferase under the control of the composite promoter, CAG. CAG comprises the chicken β-actin promoter and the cytomegalovirus immediate early enhancer.
TrkA-targeting gene delivery complexes were tested for transfection efficiency in vitro in PC12 (TrkA and p75^NTR positive) cells and COS7 (neurotrophin receptor negative) cells. […]
One to two days after transfection, the cell culture medium was removed and the cells were rinsed in phosphate-buffered saline (PBS). […] The total protein concentration of each lysate was determined using the DC Protein assay (Bio-Rad, Hercules, Calif., USA). […]

| Substance | reduction of efficiency of NL4-10K/pCAGluc gene delivery by excess free competitor |
| --- | --- |
| CTTTHTFVKALTMDGKQAAWRFIRIDTACKKKKKKKKKK (CTTTHTFVKALTMDGKQAAWRFIRIDTACKKKKKKKKKK; NL4-10K) | 74–90% |
| NGF: nerve growth factor, neurotrophin; competitor and positive control | 74–90% |
